According to publication doi:10.1101/2020.04.03.023895:
Where two headings read alike, the source gives them in different places. No constants are given. Whether binding was seen depends on the method and setting. In cells and extracts the contact can be indirect. Some binding calls cover weakened binding; strength is not graded here. For some of these results: Where a sequence is shown, tags or fusion partners need not be part of it.

Chains of the proteins cited; added tags and fusions are not shown. Lines headed by an entry give the natural chain unless they say otherwise; changes in a name come on top.
UniProt P52168: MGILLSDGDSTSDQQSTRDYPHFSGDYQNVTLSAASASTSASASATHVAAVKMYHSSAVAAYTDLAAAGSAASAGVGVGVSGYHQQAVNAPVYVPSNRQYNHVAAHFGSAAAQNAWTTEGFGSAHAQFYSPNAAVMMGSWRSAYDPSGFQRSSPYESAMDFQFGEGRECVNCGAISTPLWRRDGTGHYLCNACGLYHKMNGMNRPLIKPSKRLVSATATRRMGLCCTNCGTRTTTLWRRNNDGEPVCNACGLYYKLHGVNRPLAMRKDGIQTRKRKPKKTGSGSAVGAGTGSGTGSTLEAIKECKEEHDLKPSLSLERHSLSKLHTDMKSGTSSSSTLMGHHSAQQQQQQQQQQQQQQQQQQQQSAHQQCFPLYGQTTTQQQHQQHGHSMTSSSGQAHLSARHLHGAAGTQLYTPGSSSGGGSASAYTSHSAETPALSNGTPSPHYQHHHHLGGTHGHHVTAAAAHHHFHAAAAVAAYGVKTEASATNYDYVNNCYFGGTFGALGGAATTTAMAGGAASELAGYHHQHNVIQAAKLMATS

Legend:
[1] = biological target: T1, endogenous Drosophila Med19 (Drosophila (endogenous in S2 cells)) (UniProt Q9VVL6); experiment: co-IP
T1 sequence: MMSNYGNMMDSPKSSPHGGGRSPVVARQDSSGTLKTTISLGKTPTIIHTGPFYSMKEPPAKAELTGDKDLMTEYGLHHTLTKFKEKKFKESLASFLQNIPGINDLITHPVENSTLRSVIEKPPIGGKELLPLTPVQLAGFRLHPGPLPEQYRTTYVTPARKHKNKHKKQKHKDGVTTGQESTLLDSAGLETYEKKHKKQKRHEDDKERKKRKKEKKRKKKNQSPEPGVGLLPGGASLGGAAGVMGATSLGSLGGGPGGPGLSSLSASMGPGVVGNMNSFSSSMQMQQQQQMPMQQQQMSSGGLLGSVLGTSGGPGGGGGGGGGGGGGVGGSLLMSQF

[2] = biological target: T2, full length GST-Med19 (Drosophila) (UniProt Q9VVL6); experiment: pull-down
T2 sequence: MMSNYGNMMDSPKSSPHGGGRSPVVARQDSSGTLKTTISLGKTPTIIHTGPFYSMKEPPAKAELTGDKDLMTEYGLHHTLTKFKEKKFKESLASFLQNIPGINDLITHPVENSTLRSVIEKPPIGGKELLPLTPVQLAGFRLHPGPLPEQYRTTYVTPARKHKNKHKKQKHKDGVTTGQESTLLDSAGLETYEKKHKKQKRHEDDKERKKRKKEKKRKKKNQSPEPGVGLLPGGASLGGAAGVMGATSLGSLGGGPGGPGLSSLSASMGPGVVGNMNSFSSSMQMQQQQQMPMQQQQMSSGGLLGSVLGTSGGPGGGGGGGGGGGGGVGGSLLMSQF

[3] = biological target: T3, Med19-VC (Drosophila) (UniProt Q9VVL6); experiment: split reporter
T3 sequence: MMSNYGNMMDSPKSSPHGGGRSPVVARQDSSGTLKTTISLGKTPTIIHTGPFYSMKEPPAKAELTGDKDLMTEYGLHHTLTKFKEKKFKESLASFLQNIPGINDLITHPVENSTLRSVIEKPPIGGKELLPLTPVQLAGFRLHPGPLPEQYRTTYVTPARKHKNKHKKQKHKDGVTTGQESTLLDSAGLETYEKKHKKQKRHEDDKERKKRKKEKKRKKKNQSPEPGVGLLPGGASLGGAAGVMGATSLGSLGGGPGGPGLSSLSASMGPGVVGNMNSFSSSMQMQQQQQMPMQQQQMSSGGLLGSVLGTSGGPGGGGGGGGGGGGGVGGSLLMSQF

[4] = biological target: Myc-tagged Pnr (Drosophila) (UniProt P52168); experiment: co-IP
[5] = biological target: T2, full length GST-Med19 (Drosophila); experiment: pull-down; remark: listed apart in the source

Myc-tagged Pnr (from UniProt P52168 1-540)
binding [1]: binds

Pnr N-terminal region (amino acids 1-137) (from UniProt P52168 1-137) (domain or fragment)
binding [2]: no binding

Pnr ZF-containing region (aa 130-278) (from UniProt P52168 130-278) (domain or fragment)
binding [2]: binds

in vitro-translated ^35S-Pnr (from UniProt P52168 1-540)
binding [2]: binds

B1: VN-tagged Srp (protein, UniProt P52172 1-1264)
chain: MTKTTKPKEKAAAGGAVIGSGSGLGSVTKAGGGSLLSNAADSKIRTAKSNNNKRQAGRAATALAATTTASALAATTTAGATGSNAAANETEIAIETENGEAATPTAAATAAAANLSSLESARSQALTSVVSETARQAVTTANASATSTSTVTAATEIATATASDTAATSEAAIDDDPSAINTNNNNNNSKAQNDASESVKTKVISYHQSEDQQQQQQQQAQIYEQQQQFLSQQLISHHQQEQHQQAQQQQHQQVVQEQHQASWLAYDLTSGSAAAAAAAAAAASHPHLFGQFSYPPSHHTPTQLYEHYPSTDPIMRNNFAFYSVYTGGGGGVGVGMTSHEHLAAAAAAAAAVAQGTTPNIDEVIQDTLKDECFEDGHSTDYHVLTSVSDMHTLKDSSPYALTHEQLHQQQHHHQQQLHHHQQQQQQLYHQQQQQQQQQQHHHHHNNSTSSAGGDSPSSSHALSTLQSFTQLTSATQRDSLSPENDAYFAAAQLGSSLQNSSVYAGSLLTQTANGIQYGMQSPNQTQAHLQQQHHQQQQQQHQQHQQQQLQQQQQQHHHNQHQHHNSSSSSPGPAGLHHSSSSAATAAAVAAATAAVNGHNSSLEDGYGSPRSSHSGGGGGGTLPAFQRIAYPNSGSVERYAPITNYRGQNDTWFDPLSYATSSSGQAQLGVGVGAGVVSNVIRNGRAISAANAAAAAAADGTTGRVDPGTFLSASASLSAMAAESGGDFYKPNSFNVGGGGRSKANTSGAASSYSCPGSNATSAATSAVASGTAATAATTLDEHVSRANSRRLSASKRAGLSCSNCHTTHTSLWRRNPAGEPVCNACGLYYKLHSVPRPLTMKKDTIQKRKRKPKGTKSEKSKSKSKNALNAIMESGSLVTNCHNVGVVLDSSQMDVNDDMKPQLDLKPYNSYSSQPQQQLPQYQQQQQLLMADQHSSAASSPHSMGSTSLSPSAMSHQHQTHPHQQQQQQLCSGLDMSPNSNYQMSPLNMQQHQQQQSCSMQHSPSTPTSIFNTPSPTHQLHNNNNNNNNSSIFNNNNNNNSSSNENNNKLIQKYLQAQQLSSSSNSGSTSDHQLLAQLLPNSITAAAAAAAAAAAAAIKTEALSLTSQANCSTASAGLMVTSTPTTASSTLSSLSHSNIISLQNPYHQAGMTLCKPTRPSPPYYLTPEEDEQPALIKMEEMDQSQQQQQQQQHQQQQHGEIMLSRSASLDEHYELAAFQRHQQQQQQLQQQTAALLGQHEQHVTNYAMHKFGVDRETVVKME
binding [3]: binds

B2: endogenous Drosophila Med19 (protein, UniProt Q9VVL6 1-337)
chain: MMSNYGNMMDSPKSSPHGGGRSPVVARQDSSGTLKTTISLGKTPTIIHTGPFYSMKEPPAKAELTGDKDLMTEYGLHHTLTKFKEKKFKESLASFLQNIPGINDLITHPVENSTLRSVIEKPPIGGKELLPLTPVQLAGFRLHPGPLPEQYRTTYVTPARKHKNKHKKQKHKDGVTTGQESTLLDSAGLETYEKKHKKQKRHEDDKERKKRKKEKKRKKKNQSPEPGVGLLPGGASLGGAAGVMGATSLGSLGGGPGGPGLSSLSASMGPGVVGNMNSFSSSMQMQQQQQMPMQQQQMSSGGLLGSVLGTSGGPGGGGGGGGGGGGGVGGSLLMSQF
binding [4]: binds

B3: in vitro translated Med1^A (protein, UniProt Q9VP05 1-1475)
chain: MSGSNAKSSGTGFGSHIPSIEEKNKQIQQETMMEKLRAKYRNKPKSYEEIKKSVRMYFIEKHYPLDPLCKATLQSALDKLQHYIKVTSRHGLVERLESLSRQLGLKFMEDQQLLFISTDMFYVEILLDAAGSLSDVKVHHECKIEQQSSELVACLKSGDFADFTVQLEGLSSIYQLNAEPKVKKKAFVALQAMETDIQSLYQLHLQGHSGDSYSLMTSSSVGLVLPRRGGHPMRLTYFCPPLHLPEGDPKLASGDFTIDQVMRSSYGLSATINLEGSSANKLQTLPTVTLVRDAQTGLEVPTYAQLNQNNSLLMPATFVLRLNKPMPVCLESLKALGLPGLDSVATPPGPPTTVLNLIVQTASKQAIKNTQRGLYVNLPKETHCYFFTDNRKLQGTLVSSLPFTEPAQVPRIVAFLKKQALFYTLLASCVREQQKQYNDMDSTVILEVTAVSFNQITVELQHPYEESLATVDFLLEDGQPTCSVYCLTNEYELLSQKLTRTARKVVSIPMVIYKLLKCWDEEHEFKLHGAIGPGSGSGAIGGGGMSGGGPVSGVGNNFSQFSMDTPTPSDGSLPGGGFANINNLKMDAKSRSLADAFAASTSAAAAIAGLINLKRETDPQSGSSASGTTVSGSSSSSGSAKTSDHDIADKYKNIWKDKTPNLKHCVSITPIPGDGKSGSAGGVSGVEVQRTGGIEIIPLNAQAAIAGGGVTASSSATPTTITITPITGKDPSKDSTKKSTAASAGVGVAAKRPHESSTSSSSTSGCSGSGSSMSSSASSGSSDTQKEKKRKKKRDDSPMGPPEKIYSRQNSPAGGADASATGGVVRKFSSPSSSPKAGGGGQGLMAGVPTARPSPKHSPVYSSPKHNTASNSPKSPFGTHSPKHGSSGKPSMSTLKSAATAATILSPKGDKSSSAVGNTSSGPSASSGSSGATGLVRSFASVGAPPPPPPIPPLASSSGSISSSQSLKKEKTSSASGSSSTSSSATAGVASGGGISPASVAAAVAALKSSQQQMKSVASLSHLAAGGGLGSYAAPSGAGASGAAAVVVGAGAGAGAGASGLELSALRKGMAGGAVSLMTSTAALAPTIPAPTTTVAAGSAASLVSPVSAVVGQGQETAGAAAAATLATATILQQQPQPGAAPTSSCLTTSGGSSDSAGSINPAGASTEYMVKPSSQEGLKLTINKTGSSKSSGTGSGSSSSSGLQAKAKSSSSGATSFAGSTGSTKKQHTGLKPGVNSGPASKKATAAVSSATASSSKHFFQKANSSGNLSSKLSGSGSGGGIPLTKSNSTNSFQEHNAPRRRPSMGALASGSSGGGSGQRKLGSASGGGSGSSGSVSPALSGSMSQPPPRFDHHTDMMTILQYASPTMAASMEGFIKGLHNKFQIPKLSQRGSGGNTTSGRSTPSGSSEPALAGTSSSILGPIASSTGLTEPEAKPPVPPSQSGNEGLLNLSSTAGTPSADGIDEELLASLAGE
modifications: 35S-methionine labelled
binding [5]: binds
